Measurements from PMC7958410, “Hepatitis B virus X protein promotes vimentin expression via LIM and SH3 domain protein 1 to facilitate epithelial-mesenchymal transition and hepatocarcinogenesis” (Cell Communication and Signaling : CCS, 2021).

Protein sequences, listed by entry. Tags and fused reporters are not part of them.
UniProt P08670: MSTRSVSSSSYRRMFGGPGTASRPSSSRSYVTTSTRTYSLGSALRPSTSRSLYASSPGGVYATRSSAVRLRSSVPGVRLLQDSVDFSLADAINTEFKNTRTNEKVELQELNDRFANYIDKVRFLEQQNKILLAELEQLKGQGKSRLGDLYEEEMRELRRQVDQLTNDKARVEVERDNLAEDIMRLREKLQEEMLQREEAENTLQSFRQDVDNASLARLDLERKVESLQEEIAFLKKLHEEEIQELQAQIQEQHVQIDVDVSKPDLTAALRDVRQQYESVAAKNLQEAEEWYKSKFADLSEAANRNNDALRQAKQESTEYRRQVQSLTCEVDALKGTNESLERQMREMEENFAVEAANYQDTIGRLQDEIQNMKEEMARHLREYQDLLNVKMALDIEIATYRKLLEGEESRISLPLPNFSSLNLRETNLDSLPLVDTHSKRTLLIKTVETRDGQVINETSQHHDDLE

B1: GST-LASP1 (natural protein, UniProt Q14847 1-261, looked up)
chain: MNPNCARCGKIVYPTEKVNCLDKFWHKACFHCETCKMTLNMKNYKGYEKKPYCNAHYPKQSFTMVADTPENLRLKQQSELQSQVRYKEEFEKNKGKGFSVVADTPELQRIKKTQDQISNIKYHEEFEKSRMGPSGGEGMEPERRDSQDGSSYRRPLEQQQPHHIPTSAPVYQQPQQQPVAQSYGGYKEPAAPVSIQRSAPGGGGKRYRAVYDYSAADEDEVSFQDGDTIVNVQQIDDGWMYGTVERTGDTGMLPANYVEAI
notes: LIM and SH3 domain protein 1 (LASP1); also called LASP1 with GST Tag

Experiments:
Assay in all cases: co-IP; plasmids of HBX, LASP1, vimentin and their deletion mutants co-transfected into HEK293T cells; western blot
[1] = molecular target: HBX-1 (1–120 aa, a C-terminal deletion mutant of HBX) (hepatitis B virus) (UniProt P03165)
[2] = molecular target: HBX-2 (51–120 aa, a double-terminal deletion mutant of HBX) (hepatitis B virus) (UniProt P03165)
[3] = molecular target: HBX-3 (51–154 aa, an N terminal deletion mutant of HBX) (hepatitis B virus) (UniProt P03165)

Molecule	binding [1]	binding [2]	binding [3]
vimentin-Flag (from UniProt P08670 1-466)	binds	binds	binds
B1	binds		

These are yes or no findings as the source states them, for the method shown. In cells and extracts the contact can be indirect. A result given as binding can be weak or reduced; the word gives no strength. For some of these results: Tags and fused reporters may be left off the sequences shown.
